From PMC9076634, “Fibronectin binding protein B binds to loricrin and promotes corneocyte adhesion by Staphylococcus aureus” (Nature Communications, 2022)

Target: T1, recombinant GST-tagged human loricrin (GST-loricrin) (human) (UniProt P23490)
T1 sequence: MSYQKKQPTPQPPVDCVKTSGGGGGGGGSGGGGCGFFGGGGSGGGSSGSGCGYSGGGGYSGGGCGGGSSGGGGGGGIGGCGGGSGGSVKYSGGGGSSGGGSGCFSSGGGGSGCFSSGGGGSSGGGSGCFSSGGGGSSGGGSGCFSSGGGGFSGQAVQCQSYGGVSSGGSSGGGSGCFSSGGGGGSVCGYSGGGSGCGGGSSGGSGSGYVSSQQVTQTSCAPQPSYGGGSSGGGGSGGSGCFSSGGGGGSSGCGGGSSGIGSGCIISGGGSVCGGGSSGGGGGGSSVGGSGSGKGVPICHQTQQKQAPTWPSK
Experiment: bacterial adherence to coated wells (crystal violet); microtiter wells coated with GST-loricrin in 0.1 M NaHCO3 pH 9.6, blocked with 5% BSA; exponential-phase bacteria at OD600 1.0 in PBS, 2 h at 37 °C; absorbance at 570 nm; only the target purified

Substance | binding
fibronectin binding protein B (FnBPB) on S. aureus AD08 cells (mutant AD08∆clfB∆fnbA) (from UniProt A0A0H2XKG3) | binds
clumping factor B (ClfB) on S. aureus AD08 cells (mutant AD08∆fnbA∆fnbB) (from UniProt Q2FUY2) | binds
fibronectin binding protein A (FnBPA) on S. aureus AD08 cells (mutant AD08ΔclfBΔfnbB) (from UniProt P14738) | no binding

Results are given in words; binding and its absence hold for the method and conditions named. A result given as binding can be weak or reduced; the word gives no strength. Sequences can lack the tags named with a protein.
